The supplement of paper PMC10849652
The other results are listed elsewhere or left out.

Chains of the proteins cited; added tags and fusions are not shown. Lines headed by an entry give the natural chain unless they say otherwise; changes in a name come on top.
UniProt P31949: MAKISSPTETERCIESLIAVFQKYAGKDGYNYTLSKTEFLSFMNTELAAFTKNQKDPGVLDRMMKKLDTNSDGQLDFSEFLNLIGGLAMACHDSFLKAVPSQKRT
UniProt P29034: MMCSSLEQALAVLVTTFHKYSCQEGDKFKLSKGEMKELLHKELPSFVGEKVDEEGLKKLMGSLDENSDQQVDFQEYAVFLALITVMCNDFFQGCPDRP
UniProt Q7L4I2: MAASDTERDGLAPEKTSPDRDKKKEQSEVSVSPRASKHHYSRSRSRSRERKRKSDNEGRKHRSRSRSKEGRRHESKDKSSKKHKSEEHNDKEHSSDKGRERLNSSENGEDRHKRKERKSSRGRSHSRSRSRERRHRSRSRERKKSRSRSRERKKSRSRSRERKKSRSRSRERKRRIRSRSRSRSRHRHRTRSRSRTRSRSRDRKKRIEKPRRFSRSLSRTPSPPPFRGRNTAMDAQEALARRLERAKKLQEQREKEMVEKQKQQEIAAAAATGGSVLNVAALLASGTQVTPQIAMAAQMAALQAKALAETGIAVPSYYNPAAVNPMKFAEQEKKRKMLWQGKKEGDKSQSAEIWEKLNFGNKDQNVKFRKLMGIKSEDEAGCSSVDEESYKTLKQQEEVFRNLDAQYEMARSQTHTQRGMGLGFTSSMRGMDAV
UniProt Q9HA92: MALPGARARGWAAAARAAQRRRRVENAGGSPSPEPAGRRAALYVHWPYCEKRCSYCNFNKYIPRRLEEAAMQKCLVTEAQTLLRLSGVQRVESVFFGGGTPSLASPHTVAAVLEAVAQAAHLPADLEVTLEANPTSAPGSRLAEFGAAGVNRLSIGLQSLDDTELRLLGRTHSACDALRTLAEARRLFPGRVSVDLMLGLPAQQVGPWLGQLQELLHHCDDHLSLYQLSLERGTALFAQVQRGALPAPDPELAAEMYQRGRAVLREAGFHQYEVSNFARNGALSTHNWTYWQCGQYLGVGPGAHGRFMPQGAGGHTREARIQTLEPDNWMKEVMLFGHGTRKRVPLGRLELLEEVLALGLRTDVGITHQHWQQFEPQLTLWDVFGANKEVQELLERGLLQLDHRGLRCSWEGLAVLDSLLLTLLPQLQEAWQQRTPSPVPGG
UniProt O95059: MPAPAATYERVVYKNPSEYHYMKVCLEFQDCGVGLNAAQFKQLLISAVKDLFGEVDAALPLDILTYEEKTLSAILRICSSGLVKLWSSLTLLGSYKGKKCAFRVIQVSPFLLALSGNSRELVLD
UniProt P57060: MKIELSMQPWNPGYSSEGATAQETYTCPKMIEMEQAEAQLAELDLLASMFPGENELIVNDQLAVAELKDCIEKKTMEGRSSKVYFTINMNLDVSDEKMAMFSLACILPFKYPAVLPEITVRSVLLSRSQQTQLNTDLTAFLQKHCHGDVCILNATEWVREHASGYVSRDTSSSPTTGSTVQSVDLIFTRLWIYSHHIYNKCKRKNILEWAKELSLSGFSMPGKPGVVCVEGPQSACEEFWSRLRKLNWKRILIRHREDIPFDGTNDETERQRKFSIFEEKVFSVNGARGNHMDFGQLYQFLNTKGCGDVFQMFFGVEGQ
UniProt Q92766: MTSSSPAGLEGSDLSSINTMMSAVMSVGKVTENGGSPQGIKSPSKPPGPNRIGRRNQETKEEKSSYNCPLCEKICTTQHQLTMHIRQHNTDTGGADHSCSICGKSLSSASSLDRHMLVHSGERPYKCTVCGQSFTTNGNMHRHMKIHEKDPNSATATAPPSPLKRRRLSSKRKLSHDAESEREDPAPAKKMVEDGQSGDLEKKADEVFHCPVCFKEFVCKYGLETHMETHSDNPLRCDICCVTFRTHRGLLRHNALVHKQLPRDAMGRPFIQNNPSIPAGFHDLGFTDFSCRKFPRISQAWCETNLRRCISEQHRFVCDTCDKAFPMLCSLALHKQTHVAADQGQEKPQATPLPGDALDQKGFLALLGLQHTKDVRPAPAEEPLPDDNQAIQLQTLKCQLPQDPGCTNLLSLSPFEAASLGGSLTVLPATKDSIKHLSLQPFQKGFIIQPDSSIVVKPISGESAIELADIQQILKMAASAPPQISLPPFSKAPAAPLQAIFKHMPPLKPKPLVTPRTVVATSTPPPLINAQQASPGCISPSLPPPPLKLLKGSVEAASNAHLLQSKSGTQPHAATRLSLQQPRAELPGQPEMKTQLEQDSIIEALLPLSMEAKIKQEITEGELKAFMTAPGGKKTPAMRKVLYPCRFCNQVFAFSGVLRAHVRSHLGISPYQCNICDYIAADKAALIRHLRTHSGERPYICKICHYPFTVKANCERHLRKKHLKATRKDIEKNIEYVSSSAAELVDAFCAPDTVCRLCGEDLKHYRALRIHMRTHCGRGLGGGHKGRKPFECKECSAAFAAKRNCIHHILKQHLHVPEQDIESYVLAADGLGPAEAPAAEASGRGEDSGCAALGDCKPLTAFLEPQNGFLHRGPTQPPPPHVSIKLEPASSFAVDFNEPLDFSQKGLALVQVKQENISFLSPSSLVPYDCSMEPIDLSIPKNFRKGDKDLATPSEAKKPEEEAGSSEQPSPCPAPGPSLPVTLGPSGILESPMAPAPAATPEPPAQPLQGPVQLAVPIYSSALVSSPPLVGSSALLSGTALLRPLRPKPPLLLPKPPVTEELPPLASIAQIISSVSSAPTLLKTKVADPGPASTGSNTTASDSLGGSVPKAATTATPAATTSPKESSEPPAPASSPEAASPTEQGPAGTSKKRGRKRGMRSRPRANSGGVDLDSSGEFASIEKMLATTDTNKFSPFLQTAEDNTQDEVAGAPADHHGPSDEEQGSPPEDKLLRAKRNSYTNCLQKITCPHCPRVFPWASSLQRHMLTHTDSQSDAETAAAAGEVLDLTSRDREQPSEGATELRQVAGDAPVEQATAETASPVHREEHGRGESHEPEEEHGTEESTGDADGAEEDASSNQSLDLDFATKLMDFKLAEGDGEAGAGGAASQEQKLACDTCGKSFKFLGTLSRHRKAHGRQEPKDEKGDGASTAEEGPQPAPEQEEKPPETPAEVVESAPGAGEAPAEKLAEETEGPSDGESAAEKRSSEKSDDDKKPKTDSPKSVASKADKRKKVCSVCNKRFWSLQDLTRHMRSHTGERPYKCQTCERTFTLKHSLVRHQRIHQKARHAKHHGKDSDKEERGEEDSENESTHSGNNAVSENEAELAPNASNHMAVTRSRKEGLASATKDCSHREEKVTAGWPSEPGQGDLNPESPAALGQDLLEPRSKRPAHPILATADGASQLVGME
UniProt Q96T23: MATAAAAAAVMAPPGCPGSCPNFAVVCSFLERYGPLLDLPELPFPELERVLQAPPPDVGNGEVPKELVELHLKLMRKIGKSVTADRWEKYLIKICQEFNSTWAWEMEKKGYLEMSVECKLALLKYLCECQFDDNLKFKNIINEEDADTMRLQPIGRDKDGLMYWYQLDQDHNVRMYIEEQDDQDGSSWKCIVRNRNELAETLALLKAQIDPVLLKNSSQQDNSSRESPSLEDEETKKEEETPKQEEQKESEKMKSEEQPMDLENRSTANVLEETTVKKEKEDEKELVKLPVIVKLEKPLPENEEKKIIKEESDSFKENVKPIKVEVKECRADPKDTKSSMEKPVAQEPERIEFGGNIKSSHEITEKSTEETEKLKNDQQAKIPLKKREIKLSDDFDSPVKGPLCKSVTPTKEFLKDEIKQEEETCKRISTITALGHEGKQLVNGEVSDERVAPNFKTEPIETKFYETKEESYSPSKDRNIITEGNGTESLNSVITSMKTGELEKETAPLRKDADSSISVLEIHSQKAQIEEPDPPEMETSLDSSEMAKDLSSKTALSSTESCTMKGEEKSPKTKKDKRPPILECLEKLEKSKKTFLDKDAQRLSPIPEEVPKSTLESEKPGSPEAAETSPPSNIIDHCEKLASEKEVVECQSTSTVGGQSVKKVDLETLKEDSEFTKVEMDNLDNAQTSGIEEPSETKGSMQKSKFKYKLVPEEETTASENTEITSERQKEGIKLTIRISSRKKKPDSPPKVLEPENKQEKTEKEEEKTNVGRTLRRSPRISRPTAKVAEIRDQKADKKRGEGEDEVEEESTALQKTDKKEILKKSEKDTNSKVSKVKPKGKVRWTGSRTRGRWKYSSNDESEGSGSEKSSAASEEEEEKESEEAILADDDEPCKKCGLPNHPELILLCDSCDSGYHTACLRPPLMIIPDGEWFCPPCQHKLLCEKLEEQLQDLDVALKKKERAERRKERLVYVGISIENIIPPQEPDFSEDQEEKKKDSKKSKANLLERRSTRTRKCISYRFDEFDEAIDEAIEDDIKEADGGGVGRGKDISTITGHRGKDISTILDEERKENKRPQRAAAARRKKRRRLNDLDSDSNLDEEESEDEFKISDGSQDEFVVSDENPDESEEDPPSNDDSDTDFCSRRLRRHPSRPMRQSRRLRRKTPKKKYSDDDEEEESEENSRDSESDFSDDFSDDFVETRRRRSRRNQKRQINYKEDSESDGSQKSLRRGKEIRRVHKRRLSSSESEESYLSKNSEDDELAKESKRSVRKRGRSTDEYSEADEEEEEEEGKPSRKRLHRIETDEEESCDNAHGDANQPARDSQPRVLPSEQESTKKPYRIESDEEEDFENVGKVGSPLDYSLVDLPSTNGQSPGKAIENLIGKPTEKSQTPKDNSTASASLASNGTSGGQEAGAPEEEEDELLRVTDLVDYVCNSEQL
UniProt P51812, whole entry, looked up: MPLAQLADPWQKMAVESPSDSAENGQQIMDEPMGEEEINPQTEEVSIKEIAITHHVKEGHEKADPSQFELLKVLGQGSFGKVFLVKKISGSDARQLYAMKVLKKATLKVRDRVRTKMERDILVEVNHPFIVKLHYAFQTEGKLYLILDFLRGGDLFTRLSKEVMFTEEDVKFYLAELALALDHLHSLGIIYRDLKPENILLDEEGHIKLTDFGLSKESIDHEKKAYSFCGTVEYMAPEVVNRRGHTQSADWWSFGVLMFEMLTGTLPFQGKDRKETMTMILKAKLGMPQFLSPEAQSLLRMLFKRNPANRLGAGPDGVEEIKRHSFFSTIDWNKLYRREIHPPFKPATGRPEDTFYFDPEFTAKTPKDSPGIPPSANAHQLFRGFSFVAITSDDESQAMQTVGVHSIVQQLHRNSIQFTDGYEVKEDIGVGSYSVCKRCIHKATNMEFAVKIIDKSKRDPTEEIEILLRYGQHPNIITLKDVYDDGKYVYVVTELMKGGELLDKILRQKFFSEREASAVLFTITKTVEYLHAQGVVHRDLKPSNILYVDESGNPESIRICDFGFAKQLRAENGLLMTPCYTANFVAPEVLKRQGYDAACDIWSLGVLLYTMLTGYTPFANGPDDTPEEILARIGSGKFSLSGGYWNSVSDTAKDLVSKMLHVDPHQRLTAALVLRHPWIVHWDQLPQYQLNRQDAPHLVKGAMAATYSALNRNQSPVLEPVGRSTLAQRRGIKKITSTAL
UniProt P28702: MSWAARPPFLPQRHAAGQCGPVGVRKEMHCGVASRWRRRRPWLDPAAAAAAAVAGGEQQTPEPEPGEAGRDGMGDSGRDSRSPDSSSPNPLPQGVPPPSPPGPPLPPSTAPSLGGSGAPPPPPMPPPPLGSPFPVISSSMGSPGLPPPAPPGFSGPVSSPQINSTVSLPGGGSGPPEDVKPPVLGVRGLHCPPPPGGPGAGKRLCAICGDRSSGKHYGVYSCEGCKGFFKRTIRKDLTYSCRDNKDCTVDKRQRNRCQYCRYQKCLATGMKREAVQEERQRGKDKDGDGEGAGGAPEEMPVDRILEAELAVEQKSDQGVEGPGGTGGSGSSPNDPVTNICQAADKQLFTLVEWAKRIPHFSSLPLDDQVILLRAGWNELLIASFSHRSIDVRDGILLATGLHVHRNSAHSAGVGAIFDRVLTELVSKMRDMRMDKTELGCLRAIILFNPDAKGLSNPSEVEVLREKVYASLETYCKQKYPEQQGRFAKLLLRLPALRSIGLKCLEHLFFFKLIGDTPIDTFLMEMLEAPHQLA
UniProt P60903, whole entry, looked up: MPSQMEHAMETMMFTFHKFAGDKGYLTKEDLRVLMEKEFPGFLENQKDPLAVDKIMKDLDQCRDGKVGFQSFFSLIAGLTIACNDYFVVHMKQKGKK
UniProt Q7L099: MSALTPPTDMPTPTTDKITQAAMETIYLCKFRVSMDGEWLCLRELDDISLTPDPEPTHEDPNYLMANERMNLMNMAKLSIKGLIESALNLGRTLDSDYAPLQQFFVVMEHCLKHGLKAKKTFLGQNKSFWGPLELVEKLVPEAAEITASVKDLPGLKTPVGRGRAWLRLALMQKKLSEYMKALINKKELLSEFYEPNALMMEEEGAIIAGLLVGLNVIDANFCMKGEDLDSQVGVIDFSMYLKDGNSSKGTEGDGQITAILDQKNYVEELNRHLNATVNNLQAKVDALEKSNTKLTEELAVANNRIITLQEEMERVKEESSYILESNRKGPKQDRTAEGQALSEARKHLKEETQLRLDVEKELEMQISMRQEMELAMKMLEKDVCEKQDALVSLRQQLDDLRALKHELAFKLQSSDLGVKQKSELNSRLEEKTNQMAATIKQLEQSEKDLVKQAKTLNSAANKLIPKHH
UniProt Q96FQ6: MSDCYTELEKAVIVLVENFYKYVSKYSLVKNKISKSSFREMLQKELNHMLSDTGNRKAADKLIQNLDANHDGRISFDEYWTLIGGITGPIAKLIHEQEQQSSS

compound: C=CC(=O)N1CCC[C@@H](n2nc(-c3ccc(Oc4ccccc4)cc3)c3c(N)ncnc32)C1 [ibrutinib]; assay: log2 fold change, soluble protein after heating vs DMSO (PISA); higher = thermal stabilisation; K562 lysate, 10 uM; active = over 0.2 and 3.5 SD of the protein, either way, in both replicates (recomputed)
How it was run: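 The values are log-two fold changes in thermal stability compared with solvent controls and come from duplicates. They were obtained by TMTpro 16plex LC-MS/MS, with channel sums equalised, on the supernatant after 21,000xg for 90 min. That supernatant came from crude K562 extract at 1 mg/mL protein treated with 10 μM compound for 30 min, heated for 3 min across 48°C-58°C, pooled and brought to 0.5% NP-40 at 4°C.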

log2 fold change, inactive:
RPS27L (UniProt Q71UM5) 0.062
RTTN (UniProt Q86VV8) 0.095
S100A11 (UniProt P31949) -0.011
RTCA (UniProt O00442) 0.005
S100A2 (UniProt P29034) -0.14
RSRC2 (UniProt Q7L4I2) -0.025
RYR1 (UniProt P21817) 0.091
RSAD1 (UniProt Q9HA92) -0.097
RPP14 (UniProt O95059) 0.017
RPS26 (UniProt P62854) -0.046
RPP38 (UniProt P78345) -0.006
RPUSD4 (UniProt Q96CM3) 0.059
RWDD2B (UniProt P57060) 0.048
RREB1 isoform 2 (UniProt Q92766) 0.056
RPP25L (UniProt Q8N5L8) -0.064
RSF1 (UniProt Q96T23) -0.021
RPS7, A0A2R8Y623 -0.059
S100A14 (UniProt Q9HCY8) -0.082
RPS6KA3 (UniProt P51812) -0.04
RXRB isoform 3 (UniProt P28702) 0.047
RSBN1L (UniProt Q6PCB5) 0.007
RPN2 (UniProt P04844) -0.008
RPS2 (UniProt P15880) -0.002
RPS3A (UniProt P61247) -0.011
RRP7A (UniProt Q9Y3A4) 0.081
RPS24 isoform 4 (UniProt P62847) -0.018
RRN3 (UniProt Q9NYV6) 0.228
S100A10 (UniProt P60903) 0.118
RUFY3 isoform 2 (UniProt Q7L099) 0.146
RTL10 (UniProt Q7L3V2) 0.103
RPS6KA1 (UniProt Q15418) 0.047
RUVBL1 (UniProt Q9Y265) 0.001
S100A16 (UniProt Q96FQ6) 0.186

Looked up one by one from the entries so far, 2 records:
log2 fold change, inactive:
RUVBL1 (UniProt Q9Y265) 0.001
RPS3A (UniProt P61247) -0.011
